doi:10.1101/2024.05.08.593233
No constants are given. Whether binding was seen depends on the method and setting. In cells and extracts the contact can be indirect. Where a sequence is shown, tags or fusion partners need not be part of it.

T1: 3×FLAG-Rubicon (1-625, 761–972) (human) (UniProt Q92622)
T1 sequence: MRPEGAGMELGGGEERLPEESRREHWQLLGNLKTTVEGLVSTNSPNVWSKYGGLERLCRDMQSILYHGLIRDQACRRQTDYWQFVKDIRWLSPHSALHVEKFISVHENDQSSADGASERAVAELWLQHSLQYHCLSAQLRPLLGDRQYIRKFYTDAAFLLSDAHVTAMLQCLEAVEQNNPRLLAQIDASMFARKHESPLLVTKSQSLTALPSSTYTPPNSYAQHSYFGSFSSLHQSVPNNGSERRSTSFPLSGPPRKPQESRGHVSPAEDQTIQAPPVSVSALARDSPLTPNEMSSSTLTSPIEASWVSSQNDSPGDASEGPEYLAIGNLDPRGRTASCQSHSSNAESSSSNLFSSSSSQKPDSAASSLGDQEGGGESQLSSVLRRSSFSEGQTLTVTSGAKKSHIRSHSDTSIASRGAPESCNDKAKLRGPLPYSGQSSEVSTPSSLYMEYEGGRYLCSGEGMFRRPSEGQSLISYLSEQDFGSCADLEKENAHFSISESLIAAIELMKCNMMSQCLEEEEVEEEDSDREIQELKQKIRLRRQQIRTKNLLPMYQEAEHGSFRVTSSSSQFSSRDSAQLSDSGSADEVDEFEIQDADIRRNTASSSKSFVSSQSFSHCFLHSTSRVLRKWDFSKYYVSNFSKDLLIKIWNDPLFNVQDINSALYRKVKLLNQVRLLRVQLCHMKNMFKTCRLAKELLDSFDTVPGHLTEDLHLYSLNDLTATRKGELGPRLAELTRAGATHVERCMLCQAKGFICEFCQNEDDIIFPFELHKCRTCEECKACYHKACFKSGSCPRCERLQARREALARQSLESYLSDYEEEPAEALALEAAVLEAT

T2: 3×FLAG-Rubicon (1–508) (human) (UniProt Q92622)
T2 sequence: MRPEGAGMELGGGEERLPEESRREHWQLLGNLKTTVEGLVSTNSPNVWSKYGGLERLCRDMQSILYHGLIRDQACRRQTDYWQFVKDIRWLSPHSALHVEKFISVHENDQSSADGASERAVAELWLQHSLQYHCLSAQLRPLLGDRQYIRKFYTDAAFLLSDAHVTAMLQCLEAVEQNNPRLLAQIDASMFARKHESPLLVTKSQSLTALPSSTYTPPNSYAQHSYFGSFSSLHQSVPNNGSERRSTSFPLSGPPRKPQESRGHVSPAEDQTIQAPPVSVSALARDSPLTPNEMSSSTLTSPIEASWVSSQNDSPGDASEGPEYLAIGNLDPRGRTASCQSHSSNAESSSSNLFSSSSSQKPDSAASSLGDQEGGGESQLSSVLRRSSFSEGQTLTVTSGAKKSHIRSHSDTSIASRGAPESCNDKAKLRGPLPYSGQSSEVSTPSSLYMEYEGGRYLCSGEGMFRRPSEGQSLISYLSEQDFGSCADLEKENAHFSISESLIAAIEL

B1: endogenous WIPI2 (HEK293T) (protein, UniProt Q9Y4P8 1-454)
chain: MNLASQSGEAGAGQLLFANFNQDNTEVKGASRAAGLGRRAVVWSLAVGSKSGYKFFSLSSVDKLEQIYECTDTEDVCIVERLFSSSLVAIVSLKAPRKLKVCHFKKGTEICNYSYSNTILAVKLNRQRLIVCLEESLYIHNIRDMKVLHTIRETPPNPAGLCALSINNDNCYLAYPGSATIGEVQVFDTINLRAANMIPAHDSPLAALAFDASGTKLATASEKGTVIRVFSIPEGQKLFEFRRGVKRCVSICSLAFSMDGMFLSASSNTETVHIFKLETVKEKPPEEPTTWTGYFGKVLMASTSYLPSQVTEMFNQGRAFATVRLPFCGHKNICSLATIQKIPRLLVGAADGYLYMYNLDPQEGGECALMKQHRLDGSLETTNEILDSASHDCPLVTQTYGAAAGKGTYVPSSPTRLAYTDDLGAVGGACLEDEASALRLDEDSEHPPMILRTD
B2: HA-WIPI2d (protein, UniProt Q9Y4P8-2 1-425)
chain: MNLASQSGEAGAGQLLFANFNQDNTSLAVGSKSGYKFFSLSSVDKLEQIYECTDTEDVCIVERLFSSSLVAIVSLKAPRKLKVCHFKKGTEICNYSYSNTILAVKLNRQRLIVCLEESLYIHNIRDMKVLHTIRETPPNPAGLCALSINNDNCYLAYPGSATIGEVQVFDTINLRAANMIPAHDSPLAALAFDASGTKLATASEKGTVIRVFSIPEGQKLFEFRRGVKRCVSICSLAFSMDGMFLSASSNTETVHIFKLETVKEKPPEEPTTWTGYFGKVLMASTSYLPSQVTEMFNQGRAFATVRLPFCGHKNICSLATIQKIPRLLVGAADGYLYMYNLDPQEGGECALMKQHRLDGSLETTNEILDSASHDCPLVTQTYGAAAGKAYTDDLGAVGGACLEDEASALRLDEDSEHPPMILRTD

Key:
[1] = biological target: T1, 3×FLAG-Rubicon (1-625, 761–972) (human); test: co-IP
[2] = biological target: T2, 3×FLAG-Rubicon (1–508) (human); test: co-IP

Binder | binding [1] | binding [2]
B1 | no binding | no binding
B2 | no binding | no binding
